Data taken from PubChem BioAssay AID1159506, deposited by NCATS (2015).

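Genome-wide siRNA knockdown in TC32 Ewing sarcoma cells, comparing luciferase light from an NR0B1-promoter reporter with a CMV-promoter reporter 48 hours after transfection. Each siRNA was applied at 20 nM. A z-score of the log NR0B1-over-CMV signal, less the median of siRNAs with the same seed; more negative means a stronger specific loss of the NR0B1 reporter.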

This is part of the screen; most of the strongest results are not listed here. Sequences are the guide (antisense) strand, without overhang.

With UCAGUAGCUUGUCUGAGAG against CCL27 the assay gave seed-corrected z-score -0.2705. For UAUCCAGUAGCUAUAGGUC against IFT88 the result was seed-corrected z-score -0.2597. AAUAUGAUAGGGAAAAUUG against OR52B4 gave seed-corrected z-score -0.1548. With UGAAGUAUCACUCCUGAUC against BCAS4 the assay gave seed-corrected z-score 2.234. UAAUCGAACAUUGACAGAG against SSFA2 gave seed-corrected z-score 0.7062. UCUAUCACGAAUGUUACCG against IFI44 read seed-corrected z-score 0.3496. For UUUGAGACAAAGAACAUUG against EFNA1 the result was seed-corrected z-score 0.5851. For UACAUUUACGUGUUCUUUC against GSPT2 the result was seed-corrected z-score 1.041.

With UUCAGCUAGACUGAUCACG against URGCP the assay gave seed-corrected z-score -0.6243. UUGCCGUACAGGAUGGACG against ALPI gave seed-corrected z-score -0.7145. UCCGUCUUGAGGUUGAUCA against MED16 read seed-corrected z-score 0.3399. UUGAUUCCCAGGAUCUUGC against RSPH6A read seed-corrected z-score 1.684. Result for AAAGUCAGCAAUAACAAUG against P2RY14 was seed-corrected z-score -0.2198. UGACCUUACCGAUCUUUCC against RASSF8 gave seed-corrected z-score 0.291. UUGGAUUCUAGAAUCAUCU against STK32B read seed-corrected z-score 0.5199. With UUGCUGCUCUGAAUAGGCC against RNF207 the assay gave seed-corrected z-score 0.3424.

With UCAAAGACGAGAAAAAGGC against ITPRIPL1 the assay gave seed-corrected z-score -0.06598. UGAUCUACUGUUGAAAGCC against ZNF311 read seed-corrected z-score 0.4185. UUCCCUGUUUCAGAAGUCC against TNFAIP8L2 read seed-corrected z-score 0.7694. For AUCGCAAAACAUUAAAUCC against HSPA14 the result was seed-corrected z-score 1.309. With AACUUGAUACUGGUUACUC against DBF4 the assay gave seed-corrected z-score -0.05223. With AGAGGUGCUACAGUUCUGC against PMP22 the assay gave seed-corrected z-score -0.07917. UUUCUAACUUCAGGUUUCU against RPL24 gave seed-corrected z-score -1.493. For AGAAGUAGUAGUUGUAGGG against UBAP2 the result was seed-corrected z-score 0.6038.

With UUAUGGUAGAAUUGCUCUC against HMGCS2 the assay gave seed-corrected z-score 0.02286. AAGGGUGAUGCUGUCUUUC against ECSCR gave seed-corrected z-score -0.04451. Result for AUGUGGGUAAUUGAUAAUC against MMP26 was seed-corrected z-score -0.4121. For ACACUUGUGAGGCAUUCCU against RPL21P131 the result was seed-corrected z-score -1.34. Result for AAAAGUACAGCACACAGGU against TUBA1C was seed-corrected z-score 0.006009. Result for AUCGCUGUAGUCUCUCUGG against GOLGA7B was seed-corrected z-score -0.8115. Result for UUGAUAUAUGGAGGUAACC against MIR3976HG was seed-corrected z-score 0.1415. For UCAGCAGCGAGUACGUGAC against SMAD6 the result was seed-corrected z-score -0.0595.

UCAGUGUUGAUCUUGUGGG against NUDCD3 read seed-corrected z-score 1.615. AUCGCUCCCAGGUUAAUGC against SLC15A4 gave seed-corrected z-score 0.6447. UAUUGAGCAACAUCUGCAC against WDFY4 read seed-corrected z-score 0.881. UGCCUUCUCAGUUAAGUCA against PODXL2 read seed-corrected z-score -0.5892. AACGUGUCCAUCUCACUGC against RBMY2DP read seed-corrected z-score -0.08421. For UCCUCAUCAGGAGCUCUCC against SLC1A7 the result was seed-corrected z-score -0.8413. For UCCUGAUUCACACUAUUGG against BBOF1 the result was seed-corrected z-score 0.1356. UAUGUACUUGGGUAGAAUC against SLC25A36 gave seed-corrected z-score 0.94.

UAAAUGGAGCCGUUGUUGC against SHKBP1 read seed-corrected z-score 0.48. For UCCAUUCUGACAACUUCCC against IFNW1 the result was seed-corrected z-score 1.272. UUUGGUAGGAGAAUUCUGC against ENTPD3 read seed-corrected z-score 0.09743. For UACGCAUCCAAUUCGGCUG against FAM222B the result was seed-corrected z-score -0.1131. With UCUUGGAAAAGAUGGGUCC against AIM1L the assay gave seed-corrected z-score 0.05127. With UUCCUCAAAAUCAUAAUCC against ZMAT2 the assay gave seed-corrected z-score 0.3169. With UUCAGUGUAAGUUCGAGCC against GTF3C2 the assay gave seed-corrected z-score 0.1202. With UUGCGAUCAUCGACGGUGG against CCND2 the assay gave seed-corrected z-score 0.2729.

AUAGCGAUUCUGGUGAUGG against ENDOU gave seed-corrected z-score 0.3872. With UAAAAGACAGGGUUCUGAC against PXMP2 the assay gave seed-corrected z-score 1.139. With UUGACAUUGAUCUUCUUGG against CASKIN1 the assay gave seed-corrected z-score 0.1123. AAUCUUUGAAUCCACUUUG against PRKCH read seed-corrected z-score 0.2393.